In publication PMC10333084 one finds binding data, which are given here for one substance.

The chains behind the UniProt entries cited, without tags or fusion partners.
UniProt Q8TAQ2: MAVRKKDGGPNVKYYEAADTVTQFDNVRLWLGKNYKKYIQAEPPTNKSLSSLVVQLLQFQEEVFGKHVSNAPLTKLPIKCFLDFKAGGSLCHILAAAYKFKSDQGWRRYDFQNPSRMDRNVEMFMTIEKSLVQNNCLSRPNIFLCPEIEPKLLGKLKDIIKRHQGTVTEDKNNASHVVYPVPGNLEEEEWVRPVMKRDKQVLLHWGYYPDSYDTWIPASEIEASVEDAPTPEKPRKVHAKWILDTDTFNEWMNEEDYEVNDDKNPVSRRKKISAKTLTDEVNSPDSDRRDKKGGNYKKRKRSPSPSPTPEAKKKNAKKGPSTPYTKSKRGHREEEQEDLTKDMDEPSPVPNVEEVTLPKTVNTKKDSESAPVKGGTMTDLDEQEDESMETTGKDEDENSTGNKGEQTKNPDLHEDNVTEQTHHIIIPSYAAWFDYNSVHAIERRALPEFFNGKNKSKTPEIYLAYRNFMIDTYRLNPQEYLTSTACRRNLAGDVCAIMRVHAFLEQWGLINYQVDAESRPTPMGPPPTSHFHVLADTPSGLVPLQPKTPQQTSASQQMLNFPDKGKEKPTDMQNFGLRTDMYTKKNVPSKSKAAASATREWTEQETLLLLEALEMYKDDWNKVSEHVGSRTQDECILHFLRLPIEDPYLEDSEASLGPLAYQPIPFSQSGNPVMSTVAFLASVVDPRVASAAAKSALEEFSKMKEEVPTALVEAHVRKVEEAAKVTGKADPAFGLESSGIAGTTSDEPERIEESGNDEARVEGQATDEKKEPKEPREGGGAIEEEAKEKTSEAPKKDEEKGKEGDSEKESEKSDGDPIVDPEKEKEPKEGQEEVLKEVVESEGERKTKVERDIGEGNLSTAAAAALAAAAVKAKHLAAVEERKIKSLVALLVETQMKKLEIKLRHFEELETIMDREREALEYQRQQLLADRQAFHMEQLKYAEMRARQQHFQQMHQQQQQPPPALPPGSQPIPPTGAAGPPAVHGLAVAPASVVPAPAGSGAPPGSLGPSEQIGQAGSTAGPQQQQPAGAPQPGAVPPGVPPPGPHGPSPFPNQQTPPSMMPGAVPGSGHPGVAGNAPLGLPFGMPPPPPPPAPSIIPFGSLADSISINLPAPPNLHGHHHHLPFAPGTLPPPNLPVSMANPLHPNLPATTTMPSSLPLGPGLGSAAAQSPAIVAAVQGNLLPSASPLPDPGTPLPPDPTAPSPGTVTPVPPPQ

Results are given in words; binding and its absence hold for the method and conditions named. In cells and extracts the contact can be indirect. These calls come from enrichment with a bait or labelling near it, and not all partners need be listed.

For this assay, the target named is T1, F-box only protein 28 (FBXO28) (UniProt Q9NVF7).
T1 sequence: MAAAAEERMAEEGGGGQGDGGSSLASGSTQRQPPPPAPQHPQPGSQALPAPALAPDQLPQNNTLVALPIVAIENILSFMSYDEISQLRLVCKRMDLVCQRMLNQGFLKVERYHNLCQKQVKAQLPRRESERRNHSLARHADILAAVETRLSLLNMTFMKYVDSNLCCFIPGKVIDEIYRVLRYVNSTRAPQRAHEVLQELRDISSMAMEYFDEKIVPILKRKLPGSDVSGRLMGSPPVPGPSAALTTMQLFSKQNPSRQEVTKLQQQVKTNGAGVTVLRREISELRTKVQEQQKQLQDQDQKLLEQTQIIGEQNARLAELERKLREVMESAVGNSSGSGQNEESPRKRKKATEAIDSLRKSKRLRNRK
Description: affinity purification with mass spectrometry; anti-FBXO28 immunoprecipitates from lysates of BxPC-3 cells with stable FBXO28 overexpression and control cells; SDS-PAGE, band staining, LC-MS/MS.

For the substance SMARCC2 (from UniProt Q8TAQ2 1-1214), the binding entry is reported as “binds”.
